# Measurements as given in US6709830B2, “Methods for modulating the activation of a lymphocyte expressed G protein coupled receptor involved in cell proliferation, autoimmunity and inflammation” (The Regents of the University of California, priority 1997, dated 2004).
# Some results were stated once for a whole list of compounds, not compound by compound.
# Molecular target: T1, G2A.GFP fusion receptor (Mus musculus, UniProt Q9Z282)
# T1 construct: expressed in transfected cells; host or cells: HEK 293 cells infected with amphotropic MSCV G2A.GFP retrovirus
# T1 sequence (Q9Z282 1-382): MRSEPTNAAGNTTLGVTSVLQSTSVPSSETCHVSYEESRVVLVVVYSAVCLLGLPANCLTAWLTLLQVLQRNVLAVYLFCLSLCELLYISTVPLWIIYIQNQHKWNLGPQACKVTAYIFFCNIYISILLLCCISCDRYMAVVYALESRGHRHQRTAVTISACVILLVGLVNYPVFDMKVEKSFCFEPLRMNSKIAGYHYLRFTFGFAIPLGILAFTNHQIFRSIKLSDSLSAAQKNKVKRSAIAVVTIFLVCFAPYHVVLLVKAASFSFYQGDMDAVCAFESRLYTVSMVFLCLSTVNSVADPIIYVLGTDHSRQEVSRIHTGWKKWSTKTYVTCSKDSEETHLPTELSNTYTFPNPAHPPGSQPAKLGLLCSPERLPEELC
# Test: Internalisation of G2A.GFP in HEK 293 G2A.GFP cells (confocal microscopy)
# Format: cell-based
# Details: lipid 0.1 μM, 2 hours, serum starved HEK 293 G2A.GFP cells
# Procedure: Agonist dependent receptor internalisation is a feature of GPCRs. G2A.GFP expressing HEK 293 cells (HEK 293 G2A.GFP) were generated by infection with amphotropic MSCV G2A.GFP retroviruses. In serum starved HEK 293 G2A.GFP cells, G2A.GFP is expressed predominantly on the plasma membrane. LPC (0.1 μM), as well as SPC (1 μM), induced internalisation of G2A.GFP in over 90% of cells (FIG. 6). Neither LPA, S-1-P or PAF induced G2A internalisation, which is consistent with LPC acting as a specific ligand for G2A. Treatment of HEK 293 G2A.GFP cells with SPC at low concentrations (0.1 μM) induced receptor internalisation in fewer cells (<50%).
# HEK 293 G2A.GFP cells were seeded onto glass coverslips and subsequently serum starved for 16-24 hours prior to treatment with lipids. Two hours following lipid treatment, coverslips were washed with cold PBS and fixed with PBS/4% paraformaldehyde. Subcellular localisation of G2A.GFP was visualised under a confocal fluorescence microscope with a 60× oil immersion lens.
substance,measurement,value
lysophosphatidylcholine [LPC],cells with internalisation of G2A.GFP,over 90%
